No constants are given. Whether binding was seen depends on the method and setting. Some entries that bind do so weakly or less than the wild type.
Experiments:
[1] = target: human serum albumin (human) (UniProt P02768); test: summary of the HSA-affinity and peptide binding studies
[2] = target: human serum albumin (human) (UniProt P02768); test: HSA-Sepharose affinity chromatography of human lung extract, elution at pH 4.0, SDS-PAGE, MALDI-MS
[3] = target: human serum albumin (human) (UniProt P02768); test: HSA-affinity column, SDS-PAGE and MALDI-MS (FIG. 1A, 1B)

By UniProt entry, the sequences of proteins in these tests, tags left out. Residues count along the entry.
UniProt P02768, residues 25-609: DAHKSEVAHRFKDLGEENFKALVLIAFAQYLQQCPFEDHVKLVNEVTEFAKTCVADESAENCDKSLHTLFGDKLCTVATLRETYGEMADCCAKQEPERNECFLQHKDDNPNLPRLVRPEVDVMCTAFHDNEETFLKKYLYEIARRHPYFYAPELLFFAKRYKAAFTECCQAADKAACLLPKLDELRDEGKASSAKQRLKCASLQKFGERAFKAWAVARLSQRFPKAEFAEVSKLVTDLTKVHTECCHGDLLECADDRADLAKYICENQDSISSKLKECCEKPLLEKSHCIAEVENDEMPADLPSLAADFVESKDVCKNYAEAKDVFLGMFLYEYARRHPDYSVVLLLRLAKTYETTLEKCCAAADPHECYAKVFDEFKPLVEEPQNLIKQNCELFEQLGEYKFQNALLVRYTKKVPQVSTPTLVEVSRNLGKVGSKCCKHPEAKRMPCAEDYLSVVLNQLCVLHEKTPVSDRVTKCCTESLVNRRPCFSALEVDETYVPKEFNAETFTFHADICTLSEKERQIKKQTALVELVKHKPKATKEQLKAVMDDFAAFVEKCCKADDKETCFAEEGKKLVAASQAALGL
UniProt P05164, residues 165-745: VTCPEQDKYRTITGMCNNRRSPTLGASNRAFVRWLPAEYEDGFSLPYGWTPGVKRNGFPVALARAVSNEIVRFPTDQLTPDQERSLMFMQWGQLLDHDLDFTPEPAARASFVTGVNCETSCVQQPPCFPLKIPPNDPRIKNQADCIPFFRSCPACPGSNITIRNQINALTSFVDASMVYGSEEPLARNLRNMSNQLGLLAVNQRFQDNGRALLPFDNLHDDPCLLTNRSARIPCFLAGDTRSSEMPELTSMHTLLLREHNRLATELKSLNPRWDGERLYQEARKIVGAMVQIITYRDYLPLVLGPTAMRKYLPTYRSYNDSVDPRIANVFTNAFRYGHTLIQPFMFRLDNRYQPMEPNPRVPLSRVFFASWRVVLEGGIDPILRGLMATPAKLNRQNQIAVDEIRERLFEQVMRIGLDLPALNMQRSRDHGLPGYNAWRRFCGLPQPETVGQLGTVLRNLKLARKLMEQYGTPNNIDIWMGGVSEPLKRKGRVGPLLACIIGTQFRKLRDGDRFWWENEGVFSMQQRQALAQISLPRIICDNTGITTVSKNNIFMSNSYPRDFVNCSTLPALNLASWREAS

Measured: binding

MPO (80 kDa protein isolated from human lung tissue) (from UniProt P05164 165-745) (enzyme)
binds: all assays above

Source: US20070077239A1
